Literature values, collected in patent publication US7514068B2, “Biphenyl-pyrazolecarboxamide compounds” (Concert Pharmaceuticals Inc., priority 2005, dated 2009).
At least one structure is not confirmed: it was looked up by name or label, or the drawing left a doubt.

What was measured:
[1] = tested on: patients; settings: cited from earlier work
[2] = tested on: rats; settings: cited from earlier work
[3] = tested on: obese patients; settings: cited from earlier work
[4] = tested on: rats; settings: cited from earlier work; remark: listed apart in the source
[5] = tested on: wide range of other neurological receptors; settings: in vitro receptor binding studies; cited from earlier work

## Cc1c(C(=O)NN2CCCCC2)nn(-c2ccc(Cl)cc2Cl)c1-c1ccc(Cl)cc1 [Compound 1, N-(piperidin-1-yl)-5-(4-chlorophenyl)-1-(2,4-dichlorophenyl)-4-methyl-1H-pyrazole-3-carboxamide]
[1]
  assisting patients to discontinue tobacco smoking: effective
[2]
  in vivo effects of cannabinoid agonists (hypothermia, ring immobility, increased tail flick latency): reverse
[3]; obese patients, period of at least two years
  reducing weight and maintaining weight loss: excellent efficacy
[3]; patients
  HDL cholesterol: significant increases
  blood triglycerides: reductions
  insulin sensitivity: increased
[4]; obese rats
  food intake and body mass: reduced
  insulin sensitivity: greater
[4]; rats
  sucrose and ethanol intake: reduced
[5]
  affinity for a wide range of other neurological receptors: little affinity
